Results are given in words; binding and its absence hold for the method and conditions named. Some results given as binding are weak or reduced against the parent protein; the word gives no strength.
Assays:
[1] = target: human CD19 protein (human) (UniProt P15391); experiment: reactivity with hCD19-transfected 300.19 cells
[2] = target: human CD19 protein (human) (UniProt P15391); experiment: reactivity with B-cell lines
[3] = target: human CD19 protein (human) (UniProt P15391); experiment: immunoprecipitation from Daudi cells

The chains behind the UniProt entries cited, without tags or fusion partners. Residues count along the entry.
UniProt P15391, residues 20-556: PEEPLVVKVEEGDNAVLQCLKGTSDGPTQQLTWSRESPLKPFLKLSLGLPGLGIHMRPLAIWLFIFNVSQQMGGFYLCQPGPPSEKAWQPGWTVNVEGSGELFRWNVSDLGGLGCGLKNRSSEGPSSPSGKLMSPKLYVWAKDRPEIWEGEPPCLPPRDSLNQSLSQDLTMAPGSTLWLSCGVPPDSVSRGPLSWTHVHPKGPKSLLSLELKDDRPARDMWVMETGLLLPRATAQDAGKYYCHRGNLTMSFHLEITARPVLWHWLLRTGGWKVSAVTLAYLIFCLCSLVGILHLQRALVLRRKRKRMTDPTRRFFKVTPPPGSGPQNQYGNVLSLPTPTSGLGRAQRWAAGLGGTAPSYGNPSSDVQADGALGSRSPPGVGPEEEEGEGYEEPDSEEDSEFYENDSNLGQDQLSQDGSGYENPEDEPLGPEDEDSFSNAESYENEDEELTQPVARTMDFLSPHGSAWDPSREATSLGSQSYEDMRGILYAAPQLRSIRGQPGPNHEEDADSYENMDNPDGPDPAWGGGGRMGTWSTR

Measured: binding

B1: murine anti-CD19 monoclonal antibody of the invention (antibody, V domains shown)
VH: QIQLQQSGAELVRPGSSVKISCKASGFAFSSYWMNWVKQRPGQGLEWIGQIYPGDGDTKYNVKFRGKATLTADESSSTAYIQLTSLTSEDSGVYFCARKRITAVITTVFDVWGAGTTVTVSS
VL: NIVLTQSPASLAVSLGQRATISCRASESVDNFGNSFMHWYQQKSGQPPRLLIYIASNLESGVPARFSGSGSRTDFTLTIDPVEADDAATYYCHQNNEDPLTFGAGTKLELK
binds: all assays above

Source: patent US20240398945A1
